Experimental data as given in PubChem BioAssay AID1439 (NMMLSC, 2008).
In all, about 220,000 compounds went through this assay and about 770 (0.35%) were called active. The inconclusive results got no clear call from the source; some entries with a clear call stand among them for comparison. Rule as the data show it: active = binding response below about 49% or above about 150%; inconclusive = no clear call, values can overlap the other calls; inactive = in between.

Protein sequences, listed by entry. Tags and fused reporters are not part of them.
UniProt P09471, whole entry, looked up: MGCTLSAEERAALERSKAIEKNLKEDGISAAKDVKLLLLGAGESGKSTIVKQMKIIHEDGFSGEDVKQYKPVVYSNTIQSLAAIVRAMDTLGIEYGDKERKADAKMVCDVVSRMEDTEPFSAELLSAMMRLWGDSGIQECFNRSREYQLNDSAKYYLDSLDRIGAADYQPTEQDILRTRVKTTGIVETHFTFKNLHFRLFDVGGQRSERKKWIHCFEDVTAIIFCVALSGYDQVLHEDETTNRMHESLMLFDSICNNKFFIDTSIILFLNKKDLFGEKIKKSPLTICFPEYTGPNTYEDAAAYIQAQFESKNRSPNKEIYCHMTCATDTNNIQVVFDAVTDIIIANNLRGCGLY

What follows are molecules tested against Guanine nucleotide-binding protein G(o) subunit alpha (Homo sapiens) (UniProt P09471) (assay: RGS7-Galphao binding modulators, primary screen, biochemical, multiplexed bead flow cytometry (AID 1439;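 also: fluorescent Galphao held in activated GDP-AlF4 state binding bead-coupled RGS7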)). Conditions: at 10 µM, actives lie on both sides.

Row | Structure (SMILES) | binding response (% of control)
1 | COC(=O)c1cccc(/C=N/NC(N)=S)c1O | inconclusive: 95.9%
2 | Cc1ccccc1/C=N/Nc1nc2ccccc2c(=O)n1O | inconclusive: 89.4%
3 | COc1cccc(CC2CC(=O)N(c3ccc4c(C)cc(=O)oc4c3)C2=O)c1 (centres undefined) | inactive: 96.7%
4 | Cc1ccc(N2C(=N)/C(=C3/Nc4ccccc4S3)C(c3ccccc3)C2=O)cc1 (centres undefined) | inactive: 102%
5 | O=S(=O)(c1ccc(NC(=S)NCc2cccnc2)cc1)N1CCCCC1 | inconclusive: 39.7%
6 | Cc1nn(Cc2ccccc2)c(Cl)c1C(=O)OC(C)C#N (centres undefined) | inconclusive: 93.3%
7 | O=C(Nc1ccccc1F)C1CCN(C(=O)Cc2ccccc2)CC1 | inactive: 104%
8 | CC1(C)Cc2nc(NC3CCCCC3)c(C#N)cc2CO1 | inactive: 101%
9 | O=C(Nc1nc(-c2ccccn2)cs1)c1ccc([N+](=O)[O-])o1 | inconclusive: 67.2%
10 | CCNC(=S)N/N=C/c1ccc(F)cc1 | inconclusive: 95.8%
11 | Cc1onc(-c2c(Cl)cccc2Cl)c1C(=O)NC(=S)N1CCOCC1 | inconclusive: 47.1%
12 | N#Cc1cnn(-c2ccccc2)c1NC(=O)CN1CCN(c2ccccc2)CC1 | inconclusive: 225%
13 | O=C(NC1(C(F)(F)F)NC(=O)N(Cc2ccccc2)C1=O)c1cccnc1 (centres undefined) | inactive: 103%
14 | CCOc1ccc(C(=O)N2CCCC(c3nc(-c4cccs4)no3)C2)cc1 (centres undefined) | inconclusive: 97.4%
15 | COc1ccc(C(=O)Nc2cnn(Cc3c(F)cccc3Cl)c2)cc1OC | inconclusive: 148%
16 | CC1C2(C)OCC(C#N)(C(=N)O2)C1(C#N)C#N (centres undefined) | inconclusive: 95.1%
17 | CCCCCc1cc(=O)oc2c(C(CCN3CCCCC3)c3ccc4c(c3)OCO4)c(OC)cc(OC)c12 (centres undefined) | inconclusive: 108%
18 | Cn1nnnc1SCC(=O)Nc1ccccc1C(N)=O | inconclusive: 95.1%
19 | CC(C)N=C(NS(=O)(=O)c1ccc(Br)cc1)c1ccc(Cl)cc1 | inactive: 95.8%
20 | NC(=O)c1ccc(N=Nc2c(O)c3ccccc3[nH]c2=O)cc1 | inconclusive: 27.3%
21 | COc1ccc2cc1Oc1ccc(cc1)C[C@H]1c3cc(c(OC)cc3CCN1C)Oc1c(OC)c(OC)cc3c1[C@H](C2)N(C)CC3 | inconclusive: 84.6%
22 | O=C(Cn1cnc2ccccc2c1=O)NNC(=O)c1ccccc1 | inconclusive: 57%
23 | C=CCSc1nc(=O)n2ccccc2n1 | inconclusive: 101%
24 | CC(C)CCNC(=O)CN(C(=O)Cn1nnc(-c2ccccc2F)n1)c1cccc2c1CCCC2 | active: 11.7%

5 records picked at random from the list so far, as already listed:
Row | Structure (SMILES) | binding response (% of control)
9 | O=C(Nc1nc(-c2ccccn2)cs1)c1ccc([N+](=O)[O-])o1 | inconclusive: 67.2%
18 | Cn1nnnc1SCC(=O)Nc1ccccc1C(N)=O | inconclusive: 95.1%
15 | COc1ccc(C(=O)Nc2cnn(Cc3c(F)cccc3Cl)c2)cc1OC | inconclusive: 148%
14 | CCOc1ccc(C(=O)N2CCCC(c3nc(-c4cccs4)no3)C2)cc1 (centres undefined) | inconclusive: 97.4%
2 | Cc1ccccc1/C=N/Nc1nc2ccccc2c(=O)n1O | inconclusive: 89.4%

Continuation:

Row | Structure (SMILES) | binding response (% of control)
25 | O=C(NCC(O)c1ccccc1)c1ccccc1 (centres undefined) | inconclusive: 81.3%
26 | O=C(CSc1nc2ccccc2n1Cc1ccc(Cl)cc1)N/N=C/c1ccc(C(=O)O)cc1 | inconclusive: 100%
27 | CCOC(=O)CSc1ccc2ccccc2n1 | inconclusive: 94.3%
28 | COc1ccc(Nc2nc3ccccc3nc2NS(=O)(=O)c2cccs2)c(OC)c1 | inconclusive: 102%
29 | CSc1sc(-c2nnc(SCC(=O)Nc3ccccc3)n2C)c2c1C=CCC2 | inconclusive: 104%
30 | COc1ccc(C(=O)N/N=C/c2ccccn2)cc1OC | inactive: 104%
31 | O=c1c2c(nc3nc(NCc4cccc(Cl)c4)[nH]n13)CCC2 | inactive: 100%
32 | O=C(O)/C=C/C(=O)NC1CCCCCCCCCCC1 | inconclusive: -49.4%
33 | COc1ccc(/C=C2\SC(=S)N(c3cccnc3)C2=O)cc1 | inconclusive: 86.8%
34 | Cc1ccc(CNC(=O)CCn2c(=O)oc3ccccc32)cc1 | inconclusive: 89.1%
35 | CCn1c(CNC(=O)c2ccco2)nnc1SCC(=O)Nc1ccc(Br)cc1F | inactive: 101%
36 | CN1CCC(OC(=O)COc2ccc(Br)cc2)CC1 | inconclusive: 126%
37 | Cc1ccc(CN(c2ccc(C(=O)N3CCc4ccccc4C3)cc2)S(C)(=O)=O)cc1 | inactive: 104%
38 | Cn1nnnc1SCc1nc2scc(-c3ccccc3)c2c(=O)[nH]1 | inconclusive: 113%
39 | CC(=O)c1cc(F)c(N2CCN(C(=O)COc3ccccc3F)CC2)cc1C | inactive: 102%
40 | c1ccc2sc(-c3ccncc3)nc2c1 | inconclusive: 111%
41 | O=C(NCCc1csc(-c2cccnc2)n1)c1cccc(Cl)c1 | inconclusive: 97%
42 | O=C(Nc1nc2c(s1)CCCC2=O)c1cnccn1 | inactive: 95.6%
43 | CC(=O)C1=C(C)NC(=S)NC1c1cc([N+](=O)[O-])ccc1O (centres undefined) | inconclusive: 100%
44 | CC(C)(C)NC(=O)C(c1cccs1)N(C(=O)c1csnn1)c1ccccc1F (centres undefined) | inactive: 103%
45 | COc1cccc(CNC(=O)C2CCN(S(=O)(=O)c3ccc4c(c3)CCC(=O)N4)CC2)c1 | inactive: 111%
46 | Cc1ccc2[nH]c3c(=O)n(N)c(=O)[nH]c3c2c1 | inconclusive: 96.8%
47 | Cc1nnc(SCC(=O)NCc2ccc(F)cc2)[nH]c1=O | inconclusive: 105%
48 | CN1c2ccsc2/C(=N/Nc2ccccc2)CS1(=O)=O | inconclusive: 85.5%

Row | Structure (SMILES) | binding response (% of control)
49 | COc1ccc2c(Cl)c(C(=O)N/N=C/c3c(C)[nH]c4ccccc34)sc2c1 | active: 156% [activator]
50 | CC1=Nc2ccccc2N=C(NC(=O)CSC(=S)N2CCCCC2)C1c1ccccc1 (centres undefined) | inconclusive: 105%
51 | Cn1nnnc1SCC(=O)NC(=O)c1cccc([N+](=O)[O-])c1 | inconclusive: 112%
52 | Cc1sc2ncnc(SCC(=O)c3ccc(O)cc3O)c2c1C | inconclusive: 117%
53 | COC(=O)C1(C(C[N+](=O)[O-])c2ccco2)C(=O)NCC1c1ccccc1 (centres undefined) | inconclusive: 108%
54 | O=C(NCCc1ccc(Cl)cc1)C1CCC(CNc2c(N3CCCCC3)c(=O)c2=O)CC1 (centres undefined) | inactive: 108%
55 | CNC(=S)N/N=C/c1ccco1 | inconclusive: 80.3%
56 | O=C(Nc1nc2cc3c(cc2s1)OCCO3)C1=COCCO1 | inconclusive: 392%
57 | CC(C)c1nc2ccc(Br)cn2c1NC1CCCC1 | inconclusive: 100%
58 | COc1ccc(C2=NN(C(=O)c3ccco3)C(c3cc4ccccc4nc3Cl)C2)cc1 (centres undefined) | inconclusive: 124%
59 | COc1ccc2nc(Nc3nc(CSc4nnnn4-c4ccccc4)cc(=O)[nH]3)nc(C)c2c1 | inactive: 135%
60 | O=C(Nc1ccc(-c2cnco2)cc1)c1ccc(Cl)cc1 | inconclusive: 168%
61 | O=C(CSc1nc2ccccc2c(=O)n1-c1ccc(SC(F)F)cc1)Nc1ccc(N2CCOCC2)cc1 | inconclusive: 95.5%
62 | CC1=NN2C(=N)/C(=C\c3cc(C)n(-c4cccc(C)c4)c3C)C(=O)N=C2S1 | inconclusive: 91.3%
63 | O=C(COC(=O)c1cccnc1Cl)NCC1CCCO1 (centres undefined) | inconclusive: 120%
64 | CCC(COC)NCc1cn(-c2ccc(OC)cc2)nc1-c1cccc(F)c1 (centres undefined) | inactive: 93%
65 | C#CCSc1nnnn1-c1ccc(OCC)cc1 | inconclusive: 259%
66 | CNc1nc(-c2ccccc2)nc(-c2ccc(OC)cc2)c1C#N | inconclusive: 89.9%
67 | Cc1ccc(C(=O)OCC(=O)NCc2cccs2)c(C)c1 | inconclusive: 100%
68 | O=C(C1CCN(c2ncnc3c2sc2cccc(F)c23)CC1)N1CCCC1 | inconclusive: 259%
69 | Cc1[nH]c2ccccc2c1SCC(=O)O | inactive: 97.1%
70 | OC[C@@H](O)[C@H](O)C(/C=N/Nc1ccccc1)=N\Nc1ccccc1 | inconclusive: 128%
71 | Fc1ccc(-c2cc(-c3cccs3)cc(-c3ccccc3)n2)cc1 | inconclusive: 83.3%
72 | CC12CCCCC1N(O)C(=O)C(=O)N2O (centres undefined) | inactive: 90%

Row | Structure (SMILES) | binding response (% of control)
73 | O=C(CCl)Nc1ccccc1C(=O)NCc1ccccc1 | inconclusive: 101%
74 | CCCN1CNC(=S)N(c2ccccc2OC)C1 | inactive: 104%
75 | COc1ccc(N(CC(=O)Nc2cc(C)on2)S(=O)(=O)c2ccc(Cl)cc2)cc1 | inactive: 107%
76 | COc1cc(C2CC(=O)C3=C(C2)Nc2ncnn2C3c2cccs2)cc(OC)c1OC (centres undefined) | inconclusive: 59.3%
77 | COc1ccccc1N(C)S(=O)(=O)c1ccc(C(=O)NCc2ccc3c(c2)OCO3)cc1 | inconclusive: 85.9%
78 | CCOc1nc(OCC)c2cnn(C)c2n1 | inconclusive: 88.8%
79 | COCCNC(=O)c1onc(CSc2cc(C)cc(C)c2)c1C(=O)NCCOC | inconclusive: 118%
80 | CCCCC1=CC2=CC(=O)C(C)(OC(=O)CC)C(=O)C2=CN1Cc1ccccc1 (centres undefined) | inconclusive: 110%
81 | COc1ccccc1Nc1n[nH]c(=S)s1 | inconclusive: 103%
82 | O=C1Nc2ccc([N+](=O)[O-])cc2OC1CCN1CCN(Cc2ccc3c(c2)OCO3)CC1 (centres undefined) | inconclusive: 87.8%
83 | COc1ccc(Oc2nc(-c3ccccn3)nc3ccccc23)cc1 | inconclusive: 118%
84 | COC(=O)[C@@H]1CCCN1C(=O)CCc1nnc(C2CCCCC2)o1 | inactive: 94.5%
85 | O=S(=O)(NC1CCCC1)c1ccccc1Br | inconclusive: 87.6%
86 | COc1cc(-c2[nH]ncc2CN2CCSCC2)cc(OC)c1OC | inconclusive: 111%
87 | CC(C)c1ccccc1NC(=O)Nc1ccc(F)cc1F | inconclusive: 98%
88 | Cc1cc(NC(=O)c2cc([N+](=O)[O-])ccc2Cl)no1 | inconclusive: 98.5%
89 | CCNC(=S)/N=C(/Nc1ccc(OC)cc1)Nc1nc(C)cc(C)n1 | inconclusive: -928%
90 | O=c1c(/C=N/OCc2ccc(Cl)cc2Cl)c[nH]n1-c1cccc(Cl)n1 | inconclusive: 86.8%
91 | N#CCCC(CCC#N)C1=NCCc2ccccc21 | inconclusive: 96.3%
92 | COc1ccc(CNC(=S)NCc2ccc(OC)cc2)cc1 | inconclusive: 102%
93 | c1coc(CSc2ncnc3c2oc2ccccc23)c1 | inconclusive: 99.2%
94 | CC(=O)c1cccc(S(=O)(=O)NCCC(=O)O)c1 | inconclusive: 111%
